The campaign covered roughly 350,000 compounds. About 6,000 (1.7%) were called active. This list was built around the results that the source calls inconclusive (neither active nor inactive); the mix of calls is not that of the screen. Cut-off read from the data, not from the text of the source: active = CPE inhibition above about 20% (passing the limit was not always enough); inconclusive = no clear call, values can overlap the other calls; tested in BHK-21 cells.
Assay: protection of cells from dengue 2 killing – plate reader, single concentration, primary screen (AID 651640);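 note: 0% = median of neutral control wells and 100% = median of positive control wells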
Settings: DENV2-infected cells, cytopathic effect rescue, at 9.99 µM, stronger effect = higher value

| SMILES | CPE inhibition |
| --- | --- |
| C[C@@H]1CN([C@@H](C)CO)C(=O)c2cc(/C=C/c3ccccc3)cnc2O[C@H]1CN(C)C(=O)Cc1cccnc1 | inactive: -0.395% |
| C[C@@H]1CN([C@H](C)CO)C(=O)Cc2cc(NC(=O)C3CCCCC3)ccc2O[C@H]1CN(C)S(=O)(=O)c1ccccc1 | inconclusive: 20.8% |
| CN1C(=O)c2cc(NC(=O)C3CCCC3)ccc2OC[C@@H]2O[C@H](CC(=O)Nc3ccccc3)CC[C@H]21 | inconclusive: 78.1% |
| CCOc1ccc(S(=O)(=O)Nc2cccc(C)c2)c2cccnc12 | inactive: 1.91% |
| C[C@@H]1CN([C@H](C)CO)C(=O)c2cc(NC(=O)Nc3cccc4ccccc34)ccc2O[C@@H](C)CCCCO[C@@H]1CN(C)CC1CCCCC1 | active: 45.2% |
| Nc1nonc1-c1nc2ccccc2n1CC(=O)N/N=C/c1ccc(-c2cccc(C(=O)O)c2)o1 | inconclusive: 40.7% |
| C=CCn1c(SCC(=O)Nc2c(C)n(C)n(-c3ccccc3)c2=O)nnc1-c1ccncc1 | inconclusive: 21.1% |
| COc1ccc(S(=O)(=O)N2CC[C@@H]3[C@H]2c2cc(-c4ccc(C#N)cc4)ccc2N[C@@H]3CO)cc1 | inactive: 4.54% |
| COc1cccc(-c2nc3nc(C)cc(C)n3c2NC2CCCC2)c1 | active: 29.6% |
| CC(=O)N1CCCCN2[C@H](CO)[C@H](c3ccc(-c4ccccc4)cc3)[C@H]2C1 | inconclusive: 29.5% |
| COc1ccc(S(=O)(=O)N2CCOCC2)cc1NC(=O)[C@@H]1CCCN1C(=O)c1cccs1 | inactive: 3.82% |
| O=S(=O)(c1ccc(SCc2ccc(Br)cc2)nc1)N1CCOCC1 | inconclusive: 23.7% |
| Cc1ccc(S(=O)(=O)Nc2ccc3c(c2)C(=O)N([C@@H](C)CO)C[C@@H](C)[C@H](CN(C)C(=O)c2ccccc2)OCCCC[C@@H](C)O3)cc1 | inactive: -4.43% |
| CCc1ccccc1NC(=O)CSc1nc2[nH]c(=O)cc(O)c2s1 | inconclusive: 27.3% |
| O=C(CC1CC1)N[C@H]1CC[C@@H](CCNS(=O)(=O)c2ccc(Cl)cc2)O[C@@H]1CO | inactive: 0.915% |
| O=C(NCc1cccnc1)c1cc(C2CCCN(C(=O)C3CCCCC3)C2)on1 (stereo not given) | inconclusive: 21.7% |
| C[C@@H]1CN([C@@H](C)CO)C(=O)CCCn2cc(nn2)CO[C@H]1CN(C)S(=O)(=O)c1ccc(-n2cccn2)cc1 | inconclusive: 37.4% |
| COc1ccc(OC)c(C(=O)NC(CC(N)=O)c2ccc(N3CCN(c4ccccc4)CC3)c([N+](=O)[O-])c2)c1 (stereo not given) | inconclusive: 21.4% |

| SMILES | CPE inhibition |
| --- | --- |
| NC1=NC(=O)C(=Cc2ccccc2)S1 | active: 30% |
| COCC(=O)N1CC[C@@H]2[C@H](CO)Nc3ccc(-c4cccc(C#N)c4)cc3[C@@H]21 | active: 44.1% |
| CCCC#Cc1ccc2c(c1)[C@@H]1[C@@H](CCN1C(=O)CC1CC1)[C@@H](CO)N2C | active: 74.3% |
| CCC(=O)N1CC2(CCN(Cc3ccccc3Cl)CC2)c2c([nH]c3cc(OC)ccc23)[C@@H]1CO | active: 23.6% |
| CCOC(=O)C1=C(C)N(C[C@@H]2CC[C@@H](Cc3ccc(-c4ccccc4)cc3)O2)C(=O)NC1c1cccc2ccccc12 (stereo not given in full) | inconclusive: 37.4% |
| Cc1cc(C)c2nc(N3C(=O)C(O)=C(C(=O)c4ccco4)C3c3ccc(O)cc3)sc2c1 (stereo not given) | inactive: 5.02% |
| CCCCn1c(N)c(N(CC(C)C)C(=O)C2CCN(S(=O)(=O)c3ccc(Cl)cc3)CC2)c(=O)[nH]c1=O | inactive: -3.21% |
| C[C@@H]1CN([C@@H](C)CO)S(=O)(=O)c2ccc(/C=C/c3ccccc3)cc2O[C@H]1CN(C)C(=O)c1ccncc1 | active: 40.8% |
| CN(C)S(=O)(=O)c1cccc2c1C(=O)c1ccccc1C2=O | active: 23.4% |
| CCC(=O)N1[C@H](CO)[C@H](c2ccc(-c3cccnc3)cc2)[C@H]1CN(CC)C(C)=O | inactive: 3.55% |
| COc1ccc2c3c(n(C)c2c1)[C@H](CO)N(Cc1ccncc1)CC31CCN(C(=O)Cc2ccncc2)CC1 | active: 76.5% |
| O=C(NCC[C@@H]1CC[C@@H](NS(=O)(=O)c2cccc(F)c2)[C@@H](CO)O1)C1CCCC1 | inactive: -5.17% |
| CCCc1nn(C)c(C(=O)Nc2ccc(Cl)cc2)c1Cl | inconclusive: 58.9% |
| Cc1cc(C)c(C)c(S(=O)(=O)Nc2ccccc2N2CCOCC2)c1C | inconclusive: 26.5% |
| O=C(c1ccccc1)N1C[C@H]2[C@@H](c3ccccc31)[C@@H](CO)N2Cc1cocn1 | inconclusive: 25.8% |
| C=CCN1C=C2C(=O)C(C)(OC(=O)c3cccs3)C(=O)C=C2C=C1CCCC(=O)OC (stereo not given) | inconclusive: 53.5% |
| O=C(Nc1cc(F)ccc1F)N1C[C@@H]2[C@H](c3ccccc31)[C@H](CO)N2Cc1cccnc1 | inactive: 11.4% |

Copied from the list.
`CCC(=O)N1CC2(CCN(Cc3ccccc3Cl)CC2)c2c([nH]c3cc(OC)ccc23)[C@@H]1CO` | CPE inhibition: active: 23.6%
`CCOC(=O)C1=C(C)N(C[C@@H]2CC[C@@H](Cc3ccc(-c4ccccc4)cc3)O2)C(=O)NC1c1cccc2ccccc12` (stereo not given in full) | CPE inhibition: inconclusive: 37.4%
